Chains of the proteins cited; added tags and fusions are not shown.
UniProt P08670: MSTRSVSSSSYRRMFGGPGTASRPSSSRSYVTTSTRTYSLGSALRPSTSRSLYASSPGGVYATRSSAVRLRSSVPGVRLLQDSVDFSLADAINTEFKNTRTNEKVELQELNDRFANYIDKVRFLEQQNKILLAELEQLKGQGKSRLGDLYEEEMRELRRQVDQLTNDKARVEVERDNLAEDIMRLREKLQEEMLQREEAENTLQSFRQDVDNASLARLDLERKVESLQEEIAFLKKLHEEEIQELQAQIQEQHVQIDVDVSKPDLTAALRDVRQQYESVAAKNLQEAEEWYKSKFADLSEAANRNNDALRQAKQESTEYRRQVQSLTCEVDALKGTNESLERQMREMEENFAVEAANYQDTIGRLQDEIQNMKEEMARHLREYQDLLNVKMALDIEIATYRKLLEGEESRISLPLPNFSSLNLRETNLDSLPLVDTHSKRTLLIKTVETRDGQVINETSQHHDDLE

According to PMC6925134:

Molecular target: T1, RNF208 overexpressed in TNBC cells (crosslinking assay) (human) (UniProt Q9H0X6)
T1 sequence: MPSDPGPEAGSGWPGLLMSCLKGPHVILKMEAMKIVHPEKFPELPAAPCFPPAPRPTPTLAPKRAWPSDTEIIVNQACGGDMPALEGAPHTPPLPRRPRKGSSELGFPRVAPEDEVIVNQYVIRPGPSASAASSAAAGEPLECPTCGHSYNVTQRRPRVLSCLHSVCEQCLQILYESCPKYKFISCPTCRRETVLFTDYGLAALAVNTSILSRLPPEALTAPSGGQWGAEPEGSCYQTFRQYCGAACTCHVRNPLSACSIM
Test: cross-linking + affinity purification with mass spectrometry; RNF208-overexpressing cells fixed in 1% formaldehyde in PBS; eluted proteins separated by SDS-PAGE, Coomassie stained, analysed by mass spectrometry

Vimentin, endogenous in TNBC cells (from UniProt P08670 1-466)
binding: binds

These are yes or no findings as the source states them, for the method shown. Binding seen in cells or lysates may run through a third protein. A yes stands for co-enrichment or nearness to the bait. Other partners may have been found.
